About 1,800 (2.3%) of roughly 78,000 compounds were called active. Inconclusive means that the source gave no clear call. Such entries were picked first, then a sample of the others. Rule as the data show it: active = inhibition above about 30%; inconclusive = mostly about 10% to 28%; inactive = weaker than that.
What follows are molecules tested against Interleukin-1 receptor-like 1 (Homo sapiens) (UniProt Q01638) (assay: blocks human ST2 binding to IL-33, primary screen, biochemical, AlphaLISA (AID 1259354)). Settings: AlphaLISA ST2-Fc/biotin-IL-33 interaction, 1 h; at 17 µM, hits give high values.

Amino acid sequences for entries named in this document (tags omitted). A change or cut given only in a name is not applied to a line headed by its entry.
UniProt Q01638: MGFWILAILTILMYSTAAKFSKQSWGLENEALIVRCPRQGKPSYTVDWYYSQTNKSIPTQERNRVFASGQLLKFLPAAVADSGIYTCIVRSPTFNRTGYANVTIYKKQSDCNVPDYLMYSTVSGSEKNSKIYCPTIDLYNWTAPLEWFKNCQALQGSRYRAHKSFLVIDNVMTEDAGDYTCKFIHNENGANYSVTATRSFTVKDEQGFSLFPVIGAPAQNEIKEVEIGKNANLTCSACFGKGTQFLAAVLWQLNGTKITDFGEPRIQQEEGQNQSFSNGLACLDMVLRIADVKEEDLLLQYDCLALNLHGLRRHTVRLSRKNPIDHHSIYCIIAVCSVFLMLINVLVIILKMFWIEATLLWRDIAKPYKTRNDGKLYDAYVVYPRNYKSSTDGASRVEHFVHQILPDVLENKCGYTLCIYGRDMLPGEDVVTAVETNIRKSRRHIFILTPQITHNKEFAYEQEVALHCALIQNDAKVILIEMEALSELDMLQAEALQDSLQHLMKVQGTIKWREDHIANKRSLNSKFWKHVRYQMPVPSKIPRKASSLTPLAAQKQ

Row | Structure (SMILES) | inhibition
1 | COc1cccc(C2=Nn3c(nnc3-c3ccccc3Cl)SC2)c1 | inconclusive: 10%
2 | CC1=C[C@@H](CNC(=O)C2CC2)[C@H](C(C)C)C[C@H]1CC(=O)Nc1ccccn1 | inconclusive: 16%
3 | Cc1ccc(-c2ccc(S(C)(=O)=O)cc2)cn1 | inconclusive: 19%
4 | COC(=O)[C@@H]1C[C@H](NC(=O)c2cc3sccc3[nH]2)CN1C | inconclusive: 12%
5 | COCCN(Cc1cccs1)C(=O)C1CCCN1C(=O)C1CCCCC1 (stereo unspecified) | inactive
6 | COc1ccc(-c2nnc([C@H]3CCN(Cc4ccc(C(F)(F)F)cc4)C3)o2)cc1 | inactive
7 | COc1cccc(/C=C2\CS/C(=C\c3cccc(OC)c3OC)C2=O)c1OC | active: 39%
8 | CCCOC(=O)c1ccc(N2COc3ccc4c(C)cc(=O)oc4c3C2)cc1 | inconclusive: 12%
9 | CCOCCCNC(=O)CN1C(=O)CSc2ccc(S(=O)(=O)N3CCC(C)CC3)cc21 | inconclusive: 13%
10 | Cc1cc(Nc2ccccc2)nc(Nc2ccc(NC(=O)c3ccc(Br)o3)cc2)n1 | inconclusive: 22%
11 | CCN(CC)c1ccc(C2CC(=O)C3=C(C2)Nc2ccccc2NC3c2ccco2)cc1 (stereo unspecified) | inconclusive: 24%
12 | Cc1ccn2c(NC(=O)c3ccccc3F)c(-c3ccccc3)nc2c1 | inactive
13 | COc1ccc(OCC(=O)Nc2c(C(=O)Nc3ccc(F)cc3)oc3ccccc23)cc1 | inconclusive: 16%
14 | CCN(CC)c1ncnc2c1cnn2-c1ccc(Cl)cc1 | inconclusive: 10%
15 | COc1cccc2c1OCC(c1n[nH]c(CCc3ccccc3)n1)C2 (stereo unspecified) | inactive
16 | COc1cc(/C=C(\C#N)c2nc3ccc(C)cc3[nH]2)cc(OC)c1O | active: 34%
17 | CC1(C)CC(=O)C=C(C(=O)N2CC[C@@H](c3ccc(F)cc3)[C@H](O)C2)O1 | inconclusive: 21%
18 | CN(C)C1CCN(C(=O)CC(=O)Nc2ccc(F)c(Cl)c2)C1 (stereo unspecified) | inactive
19 | Cc1ccc(OC2(C(=O)NCc3cccc(C)c3C)CCNCC2)cc1 | inconclusive: 18%
20 | Nc1c(C(=O)c2ccc(Br)cc2)sc2nc3c(cc12)CCC3 | inactive
21 | CC(=O)c1cccc(NC(=O)C(C)N2C(=O)c3ccccc3C2=O)c1 (stereo unspecified) | inconclusive: 12%
22 | CC1CCCCN1CC(=O)N1CCCc2c1c(=O)oc1ccc(OCc3ccccc3)cc21 (stereo unspecified) | inconclusive: 22%
23 | O=C(NCCC1=CCCCC1)C1CCN(S(=O)(=O)c2cccs2)CC1 | inconclusive: 10%
24 | CC1(C)CC(=O)C2=C(C1)Nc1cc(C(=O)c3ccccc3)ccc1NC2c1ccccn1 (stereo unspecified) | inconclusive: 13%

Row | Structure (SMILES) | inhibition
25 | CCc1[nH]c2c(CNC(=O)C(C)Cn3cccn3)cc(C)cc2c1C (stereo unspecified) | inactive
26 | CC1(C)CCCC2(C)C3=C(C(=O)OC3O)C(O)CC12 (stereo unspecified) | inactive
27 | CO[C@@H](C(=O)Nc1cc2c(C)cc(=O)oc2cc1C)c1ccccc1 | inconclusive: 14%
28 | CC1=C[C@@H](CN2CCC(O)CC2)[C@H](C(C)C)C[C@H]1Cc1nnc(-c2ccccc2)o1 | inconclusive: 24%
29 | CC(=O)NC(C)C(=O)CCCCC(C)C(=O)O (stereo unspecified) | inactive
30 | N#CC1=C(N)OC2=C(C(=O)CC(c3ccccc3)C2)C1c1cccc(Cl)c1Cl (stereo unspecified) | inactive
31 | O=C(C[C@@H]1CCNC[C@@H]1Cc1cc(COc2ccccc2)on1)N1CCN(c2ccccc2)CC1 | active: 42%
32 | Clc1ccc(CN2CC[C@H](c3nnc(Cc4ccccc4)o3)C2)cc1 | inconclusive: 12%
33 | COc1cc(NCCNC(=O)c2ccncc2)ncn1 | inactive
34 | CCOC(=O)c1[nH]ncc1-c1c(-c2ccccc2)ncn1C1CC=CC1 | inconclusive: 14%
35 | COc1ccccc1C/C(N)=N\OC(=O)c1ccc(C(C)(C)C)cc1 | inactive
36 | CC(=O)C(=C(C)O)c1ncc(-c2ccccc2)s1 | inconclusive: 11%
37 | O=C(Nc1nc2ccccc2n1Cc1ccccc1)c1ccco1 | inconclusive: 23%
38 | COCC(C)C1CCN(Cc2cc(F)c(O)c(OC)c2)CC1 (stereo unspecified) | inactive
39 | COc1ccc(-n2nc3c(c2NC(=O)c2cc(Cl)cc(Cl)c2)CSC3)cc1 | inconclusive: 15%
40 | COc1ccc(-n2nc3c(c2NC(=O)c2ccc(OC)c(OC)c2)CS(=O)C3)cc1 (stereo unspecified) | inactive
41 | Fc1ccc(N2CCN(c3nc(-c4ccco4)cc(C(F)(F)F)n3)CC2)cc1 | inconclusive: 25%
42 | COc1cccc(CN2CCN(C(=O)c3cnn4c3CCCC4)CC2=O)c1 | inconclusive: 10%
43 | CC1(C)CC(=O)C=C(C(=O)N2CCc3c([nH]c4ccccc34)C2c2ccccc2F)O1 (stereo unspecified) | inconclusive: 23%
44 | c1c(CN2CCC(N3CCSCC3)CC2)nn2c1CNCC2 | inconclusive: 15%
45 | CC(C)C(O)c1cnc(OCc2ccccc2)nc1OCc1ccccc1 (stereo unspecified) | inconclusive: 13%
46 | O=C(c1ccc(Br)cc1)N1CCN=C1SCc1cccnc1 | inactive
47 | Clc1ccc(-n2ncc3c(NCc4cccnc4)ncnc32)cc1 | inactive
48 | CCc1ccccc1NCn1nnc2ccccc21 | inconclusive: 15%

Row | Structure (SMILES) | inhibition
49 | O=C1c2cccnc2C(=O)N1C1CCCCC1 | inconclusive: 15%
50 | O=C(c1ccc(Cl)cc1Cl)N1CCCC1 | inactive
51 | CC(=O)c1ccc(N2CCC(O)(CO)CC2)nc1 | inactive
52 | COc1ccc(/C=N\OCC(=O)N2CC3(C)CC2CC(C)(C)C3)cc1 (stereo unspecified) | inconclusive: 20%
53 | CC1=C(C(=O)Nc2cccc(C)n2)C(c2ccccc2)C2=C(CC(C)(C)CC2=O)N1 (stereo unspecified) | inactive
54 | COc1cc(C(=O)NCc2c(C)noc2C)nc(OC)n1 | inactive
55 | CC(C)(C)c1nnc(NC(=O)NCC2CC(=O)N(C3CCCC3)C2)s1 (stereo unspecified) | inconclusive: 17%
56 | Clc1ccc(SCCCCn2ccnc2)cc1 | inconclusive: 13%
57 | COc1cc2[nH]c(=O)n(CCCC(=O)NC3CCCC3)c(=O)c2cc1OC | inconclusive: 15%
58 | O=[N+]([O-])c1ccccc1C(N1CCOCC1)N1CCOCC1 | inconclusive: 15%
59 | Cc1ccc(-c2csc(NC(=O)CN3C(=O)CCC3=O)n2)cc1C | inactive
60 | COc1ccc(NC(=O)c2ccccc2I)c([N+](=O)[O-])c1 | inconclusive: 21%
61 | COc1ccc2cc(CN3CCCN(c4ccncc4)CC3)c(=O)[nH]c2c1 | inconclusive: 23%
62 | Cc1cc(C)[n+]2c(c1C#N)SCC2C(Br)c1ccccc1 (stereo unspecified) | active: 58%
63 | CSc1cccc(NC(=O)N2CCCC2c2ccccn2)c1 (stereo unspecified) | inconclusive: 13%
64 | CSCc1ccc(C(=O)N(C)C2CCCN(CCCc3ccccc3)C2)o1 (stereo unspecified) | inconclusive: 14%
65 | FC(F)(F)c1cc(-c2cccs2)nc(-n2cnc3ccccc32)n1 | inconclusive: 23%
66 | C=CCn1cc(C(=O)NC(C)CC)c(=O)c2cc(S(=O)(=O)N3CCCCCC3)ccc21 (stereo unspecified) | inconclusive: 15%
67 | CCCc1nnc(NC(=O)CN2C(=O)CCC2=O)s1 | inactive
68 | C=C(C)COc1cccc(C(=O)N2CC(N3CCCCC3C)C2)c1 (stereo unspecified) | inconclusive: 11%
69 | Cc1cccc(CN2CCCC3(CCN(Cc4cccc(OCCO)c4)C3)C2)c1 (stereo unspecified) | inconclusive: 13%
70 | O=C(CCNc1ccc(F)c(Cl)c1)c1ccco1 | inconclusive: 28%
71 | O=C1CCc2cc(S(=O)(=O)N3CCN(c4ccccc4Cl)CC3)ccc2N1 | inconclusive: 12%
72 | O=C1Nc2ccccc2N(O)N1c1ccc(Br)cc1 | inconclusive: 11%

Row | Structure (SMILES) | inhibition
73 | O=C1NC[C@@H](CCC(=O)N2CCCCC2)N2C[C@@H](NC(=S)NC3CC3)C[C@@H]12 | inactive
74 | CCCC(C)c1nnc(NC(=O)c2cc(C)[nH]c(=O)c2)s1 (stereo unspecified) | inactive
75 | COc1ccc(Cl)cc1Nc1nc(-c2ccc(Cl)cc2Cl)nc2ccccc12 | inconclusive: 26%
76 | CCS(=O)(=O)N1CCN(c2nc(C)cc(N3CCCC3)n2)CC1 | inconclusive: 11%
77 | O=[N+]([O-])c1cc(C=Nc2ccc(-c3nc4ncccc4o3)cc2)c(O)c([N+](=O)[O-])c1 | inactive
78 | O=C(c1cccc(Br)c1)N1CCN(C2=NS(=O)(=O)c3ccccc32)CC1 | inconclusive: 13%
79 | COc1cc(/C=C2/SC(=Nc3ccccc3)NC2=O)cc(I)c1O | inconclusive: 22%
80 | CCCN1CCN(CCCNC(=O)c2cn(C)c(=O)c3c2c2ccccc2n3C)CC1 | inactive
81 | COc1cc(/C=c2\sc3n(c2=O)CN(c2ccc(C)cc2)CN=3)c([N+](=O)[O-])cc1OC | active: 38%
82 | c1cncc(-c2noc(C3CCCN(Cc4ncc[nH]4)C3)n2)c1 (stereo unspecified) | inactive
83 | CC1CCCN(CCCNS(=O)(=O)c2cccc3nsnc23)C1 (stereo unspecified) | inactive
84 | Cc1cc(C)c(CNCc2cncn2CC(C)C)c(C)c1CO | inconclusive: 12%
85 | Clc1cccc(-c2noc(CN(Cc3ccncc3)CC3CCCO3)n2)c1 (stereo unspecified) | inconclusive: 11%
86 | C=CCOc1ccc(C=Nc2ccc(S(=O)(=O)Nc3ccccn3)cc2)cc1OCC | inactive
87 | CCn1nc(C(=O)O)c2c1CCC(NCCN1CCCOC1=O)C2 (stereo unspecified) | inactive
88 | O=C1CC(N2CCCCCC2)C(=O)N1c1ccc(Br)cc1Br (stereo unspecified) | inactive
89 | CCOc1ccc(S(=O)(=O)N2CCN(c3nc(C)cc(N4CCCCC4)n3)CC2)cc1 | inconclusive: 14%
90 | Cc1nn(-c2ccccc2)c(Cl)c1CN1CC[C@H](CO)[C@H](O)C1 | inconclusive: 10%
91 | Cc1cc(Cl)ccc1NC(=O)CSc1cccc2cccnc12 | inactive
92 | COc1ccc(Nc2cc(C)nc(N3CCN(S(=O)(=O)c4ccc(Oc5ccccc5)cc4)CC3)n2)cc1 | inconclusive: 13%
93 | COc1ccccc1N1CCN([C@@H]2[C@H](O)[C@H](CO)O[C@@H]2CNC(C)C)CC1 | inconclusive: 10%
94 | COCC(=O)N1CCCN(Cc2cc(C(C)C)no2)CC1 | inconclusive: 15%
95 | O=C(NCc1ccco1)c1ccccc1C(=O)c1ccccc1 | inactive
96 | COc1cccc(CN2CCN(Cc3cnc(N(C)C)s3)CC2=O)c1 | inconclusive: 15%

Single values from the results shown:
Entry of Clc1ccc(-n2ncc3c(NCc4cccnc4)ncnc32)cc1 under inhibition: inactive
Entry of CC1CCCCN1CC(=O)N1CCCc2c1c(=O)oc1ccc(OCc3ccccc3)cc21 (stereo unspecified) under inhibition: inconclusive: 22%
Entry of CC1(C)CC(=O)C2=C(C1)Nc1cc(C(=O)c3ccccc3)ccc1NC2c1ccccn1 (stereo unspecified) under inhibition: inconclusive: 13%
Entry of Cc1ccc(OC2(C(=O)NCc3cccc(C)c3C)CCNCC2)cc1 under inhibition: inconclusive: 18%
Entry of COc1ccccc1C/C(N)=N\OC(=O)c1ccc(C(C)(C)C)cc1 under inhibition: inactive
